From PMC10952895, “Assessment of the potential of novel and classical opioids to induce respiratory depression in mice” (British Journal of Pharmacology, 2023)

System: T1, μ-receptor (μ-receptor-RLuc8)
T1 construct: gene Oprm1; construct from Gillis, Gondin et al. 2020
Experiment: BRET, Nb33-Venus recruitment to μ-receptor-RLuc8 in HEK293 cells
Type: cell-based
Conditions: agonist; 10 min after addition, normalised to DAMGO

`CN1CC[C@]23c4c5ccc(O)c4O[C@H]2[C@@H](O)C=C[C@H]3[C@H]1C5` [morphine] gave a pEC50 of 6.0 ± 0.07.
